These are yes or no findings as the source states them, for the method shown. In cells and extracts the contact can be indirect. Some binding calls cover weakened binding; strength is not graded here.
Target: GLP-1R of the NanoBRET β-arrestin 1 recruitment assay (human) (UniProt P43220)
Test: FRET or BRET; NanoBRET β-arrestin 1 recruitment to the GLP-1R in cells, induced by GLP-1, tirzepatide, TZPΔC20, TZPΔC20,Y1H; exactly as in ref. 10

Chains of the proteins cited; added tags and fusions are not shown. Residues count along the entry.
UniProt P43220, residues 24-463: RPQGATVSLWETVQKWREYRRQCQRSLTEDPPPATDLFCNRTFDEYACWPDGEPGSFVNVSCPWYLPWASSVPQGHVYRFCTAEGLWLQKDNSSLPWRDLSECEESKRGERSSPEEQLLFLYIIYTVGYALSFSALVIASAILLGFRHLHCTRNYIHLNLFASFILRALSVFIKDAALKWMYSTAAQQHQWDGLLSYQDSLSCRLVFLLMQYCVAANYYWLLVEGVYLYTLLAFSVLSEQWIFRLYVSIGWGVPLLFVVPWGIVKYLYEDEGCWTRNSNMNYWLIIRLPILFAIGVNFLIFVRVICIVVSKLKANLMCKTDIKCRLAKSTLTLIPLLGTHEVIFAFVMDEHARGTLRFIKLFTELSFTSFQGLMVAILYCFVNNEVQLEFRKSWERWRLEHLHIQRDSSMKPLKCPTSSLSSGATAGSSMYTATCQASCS
UniProt P49407: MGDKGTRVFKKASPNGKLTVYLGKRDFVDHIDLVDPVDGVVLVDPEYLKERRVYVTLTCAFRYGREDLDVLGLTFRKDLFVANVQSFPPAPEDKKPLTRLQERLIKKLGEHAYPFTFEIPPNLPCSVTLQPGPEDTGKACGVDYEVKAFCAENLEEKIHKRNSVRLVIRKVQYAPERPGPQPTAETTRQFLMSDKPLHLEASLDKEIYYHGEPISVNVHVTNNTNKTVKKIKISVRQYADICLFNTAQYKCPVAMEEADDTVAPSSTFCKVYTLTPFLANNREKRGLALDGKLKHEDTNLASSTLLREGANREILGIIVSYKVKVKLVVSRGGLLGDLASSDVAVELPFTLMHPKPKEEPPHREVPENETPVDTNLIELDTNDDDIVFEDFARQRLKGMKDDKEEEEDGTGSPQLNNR

“β-arrestin 1 (NanoBRET recruitment assay) (from UniProt P49407 1-418)” was tested, and the binding was “binds”.

— PMC9060465 (Proceedings of the National Academy of Sciences of the …, 2022)
